# Data source: PubChem BioAssay AID1224826 (NIAID, 2016)
# Screen: 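Genes that change LPS-induced Tnf promoter activity in mouse macrophages when knocked down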 (primary screen)
# Cells: RAW264.7 G9 macrophages from mouse bearing reporters for p65 (GFP) and the Tnf promoter (mCherry)
# Reagents: siRNA pool against mouse genes, 100 nM
# Time to read-out: 16 h of LPS stimulation, after 2 days of siRNA transfection
# Conditions: bacterial lipopolysaccharide (Salmonella minnesota R595), 10 ng/ml
# Detection: 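Nuclear mCherry signal of the Tnf promoter reporter measured by imaging after background removal, scaled to each plate median and turned into robust z-scores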
# Direction: Tnf reporter robust z-score: higher = stronger Tnf promoter reporter signal after LPS; Tnf reporter intensity: higher = stronger Tnf promoter reporter signal
# Active means: 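Called active when robust z-score is at most -1.3, matching the median of the Tlr4 knock-down control, or over 3; control wells and wells with under 50 cells never active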
# Calls: active = Tnf reporter clearly lowered or raised; inactive = no clear change in Tnf reporter
# This is one part, drawn at random, of about 17,000 reagents tested. About 1,110 of them (6.6%) count as active. 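Active means lowered or raised reporter signal; replicate intensities are raw and not normalised per plate.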 Unmarked entries are inactive. Reagent sequences are not shown.
The first 5 records, to show the layout:
Target gene,Tnf reporter robust z-score,fewer than 50 cells in well,"Tnf reporter intensity, replicate 1","Tnf reporter intensity, replicate 2"
"Atp8b3 (ATPase, class I, type 8B, member 3)",-0.14,enough cells in well,189,132
Kctd8 (potassium channel tetramerisation domain containing 8),2.12,enough cells in well,303,244
Fem1b (fem 1 homolog b),0.94,enough cells in well,302,303
Zfp277 (zinc finger protein 277),0.07,enough cells in well,58.1,131
Igfbp7 (insulin-like growth factor binding protein 7),-0.96,enough cells in well,190,102

Results, from the start:
Target gene,Tnf reporter robust z-score,fewer than 50 cells in well,"Tnf reporter intensity, replicate 1","Tnf reporter intensity, replicate 2"
"Atp8b3 (ATPase, class I, type 8B, member 3)",-0.14,enough cells in well,189,132
Kctd8 (potassium channel tetramerisation domain containing 8),2.12,enough cells in well,303,244
Fem1b (fem 1 homolog b),0.94,enough cells in well,302,303
Zfp277 (zinc finger protein 277),0.07,enough cells in well,58.1,131
Igfbp7 (insulin-like growth factor binding protein 7),-0.96,enough cells in well,190,102
Arid4a (AT-rich interaction domain 4A),,fewer than 50 cells per well; well left out of calls,360,118
Hecw2,0.39,enough cells in well,197,170
Tnip2 (TNFAIP3 interacting protein 2),,fewer than 50 cells per well; well left out of calls,109,131
Srsf9 (serine and arginine-rich splicing factor 9),3.28 (active),enough cells in well,208,218
Or10ag2 (olfactory receptor family 10 subfamily AG member 2),0.26,enough cells in well,187,177
"Fyn (Fyn proto-oncogene, Src family tyrosine kinase)",0.93,enough cells in well,278,190
Tmem266 (transmembrane protein 266),0.15,enough cells in well,227,187
Nvl (nuclear VCP-like),-1.17,enough cells in well,131,76.3
Tshr (thyroid stimulating hormone receptor),-1.48 (active),enough cells in well,222,19.7
Sult2a8,-0.68,enough cells in well,207,49.4
C630004L07Rik (RIKEN cDNA C630004L07 gene),0.57,enough cells in well,134,194
Mmp21 (matrix metallopeptidase 21),0.85,enough cells in well,404,210
"Sec11c (SEC11 homolog C, signal peptidase complex subunit)",,fewer than 50 cells per well; well left out of calls,39,55.3
Smad9 (SMAD family member 9),-0.55,enough cells in well,211,189
Or10p21 (olfactory receptor family 10 subfamily P member 21),1.65,enough cells in well,187,140
Nrp2 (neuropilin 2),-0.78,enough cells in well,154,153
Kcnj12,-0.12,enough cells in well,169,136
Rae1 (ribonucleic acid export 1),-0.7,enough cells in well,82.1,116
"Met (met proto-oncogene, receptor tyrosine kinase)",2.63,enough cells in well,328,342
Nthl1 (nth (endonuclease III)-like 1 (E.coli)),-0.45,enough cells in well,206,153
Sh3bp1 (SH3-domain binding protein 1),-0.25,enough cells in well,82.6,103
Lipk (lipase family member K),1.44,enough cells in well,168,239
Fxyd6 (FXYD domain-containing ion transport regulator 6),-1.1,enough cells in well,165,79.3
Kera (keratocan),0.59,enough cells in well,271,192
Nox3 (NADPH oxidase 3),-1.36 (active),enough cells in well,134,55.1
Olfml1 (olfactomedin-like 1),2.52,enough cells in well,233,261
"Baalc (brain and acute leukemia, cytoplasmic)",0.4,enough cells in well,256,210
Rundc3b (RUN domain containing 3B),-0.11,enough cells in well,223,107
Stil (Scl/Tal1 interrupting locus),0.3,enough cells in well,291,250
"Tbc1d10c (TBC1 domain family, member 10c)",,fewer than 50 cells per well; well left out of calls,284,103
"Snap47 (synaptosomal-associated protein, 47)",0.5,enough cells in well,325,84.9
"Magix (MAGI family member, X-linked)",-0.15,enough cells in well,129,137
Cbln4 (cerebellin 4 precursor protein),2.29,enough cells in well,328,263
Chit1 (chitinase 1),,fewer than 50 cells per well; well left out of calls,131,91.8
Rbm43 (RNA binding motif protein 43),-0.11,enough cells in well,271,61.1
Chst11 (carbohydrate sulfotransferase 11),1.06,enough cells in well,205,140
Efcc1 (EF hand and coiled-coil domain containing 1),-0.96,enough cells in well,101,120
Recql5 (RecQ protein-like 5),0.71,enough cells in well,457,205
Lrrc46 (leucine rich repeat containing 46),,fewer than 50 cells per well; well left out of calls,91.5,59.5
Tctn2 (tectonic family member 2),1.56,enough cells in well,172,142
Obp2a (odorant binding protein 2A),-0.49,enough cells in well,172,173
Mapk1ip1 (mitogen-activated protein kinase 1 interacting protein 1),,fewer than 50 cells per well; well left out of calls,80.5,94.8
"Yes1 (YES proto-oncogene 1, Src family tyrosine kinase)",1.12,enough cells in well,237,186
Olfm5 (olfactomedin 5),-0.89,enough cells in well,135,34.4
Trh (thyrotropin releasing hormone),-0.29,enough cells in well,180,239
Ndufv3 (NADH:ubiquinone oxidoreductase core subunit V3),2.8,enough cells in well,347,195
Slc12a4,-0.06,enough cells in well,104,93.3
Casq2 (calsequestrin 2),-0.28,enough cells in well,125,156
Alyref (Aly/REF export factor),-1.79 (active),enough cells in well,44.5,38.9
Gpr149 (G protein-coupled receptor 149),0.18,enough cells in well,180,398
Abhd4 (abhydrolase domain containing 4),-0.64,enough cells in well,134,112
Katna1 (katanin p60 (ATPase-containing) subunit A1),-0.1,enough cells in well,206,113
Or6s1 (olfactory receptor family 6 subfamily S member 1),0.05,enough cells in well,182,119
Ccl17 (C-C motif chemokine ligand 17),-0.1,enough cells in well,181,333
Scoc (short coiled-coil protein),-1.19,enough cells in well,72.3,80.7
Tbrg1 (transforming growth factor beta regulated gene 1),,fewer than 50 cells per well; well left out of calls,68.3,57.3
Gnrhr (gonadotropin releasing hormone receptor),-0.52,enough cells in well,140,310
Dlg1 (discs large MAGUK scaffold protein 1),0.08,enough cells in well,212,154
Tmem18 (transmembrane protein 18),2.63,enough cells in well,380,403
Slamf1 (signaling lymphocytic activation molecule family member 1),0.19,enough cells in well,300,227
Gm10413 (predicted gene 10413),-0.14,enough cells in well,204,71.1
P3h1 (prolyl 3-hydroxylase 1),2.33,enough cells in well,340,261
Pitx1 (paired-like homeodomain transcription factor 1),-0.48,enough cells in well,227,143
Plekha5 (pleckstrin homology domain containing A5),-1.38 (active),enough cells in well,67.2,104
Or8c16 (olfactory receptor family 8 subfamily C member 16),-0.56,enough cells in well,84,90.5
Cep295 (centrosomal protein 295),-0.94,enough cells in well,129,92.7
Sost (sclerostin),-1.14,enough cells in well,188,119
Cfap126 (cilia and flagella associated protein 126),,fewer than 50 cells per well; well left out of calls,226,308
Atp5f1e (ATP synthase F1 subunit epsilon),,fewer than 50 cells per well; well left out of calls,170,58.2
Nme1 (NME/NM23 nucleoside diphosphate kinase 1),,fewer than 50 cells per well; well left out of calls,120,130
